This is one part of the list. Entries with a potency or affinity are not part of this list.
What follows are compounds tested on Acinetobacter baumannii. Settings: Concentration 20 uM; ASSAY_TEST Inhibition of Bacterial Growth; detection method Absorption (OD600); MEDIA CAMHB; plate type 384well; NBS; CORNING #3640; time 18 hr.

SMILES | Inhibition [%]
CN1CCN(c2nccc3[nH]c(-c4cccc(F)c4)cc23)CC1 | -2.54
O=C(NCCN1CCCC1)c1cc(NCCCCN2CCC(F)(F)CC2)nc2ccc(Cl)cc12 | 14.07
COc1cncc(-c2cncc(N3CCN(c4ccncc4)CC3)n2)c1 | 16.72
O=S(=O)(c1ccc(Cl)cc1)N1CCN(C(=S)NCc2ccco2)CC1 | 6.4
Cc1ccc2[nH]c3c(NCCN(C)C)ncnc3c2c1 | 10.41
CC1=NN(c2nc3ccccc3s2)C(=O)C1Cc1cccc2ccccc12 (centres undefined) | -6.52
CC1CC1C(=O)NC1CCN(CC2(c3ccccc3)CCCCC2)CC1 (centres undefined) | 10.59
COc1cccc(OC)c1C(=O)Nc1ccc(Cl)c(-c2nc3ccccc3s2)c1 | -0.36
O=C(NCc1ccco1)N1CCN(Cc2ccc(Cl)s2)CC1 | 8.99
CCCCS(=O)(=O)Nc1ccc2cnn(C)c2c1 | 1.4
CCN(CC)CCCN1CCN(C(=O)c2cccc(-c3noc(C(F)(F)F)n3)c2)CC1 | 6.18
Cc1ccc(-c2nc(CN(Cc3ccccn3)C(C)C)cs2)o1 | 9.23
Nc1ccc(C(=O)Nc2ccc(-c3nc4ccccc4o3)cc2)cc1 | -1.87
CC(C)(C)OC(=O)N1CCN(c2nccc(-c3ccc(-c4ccc(Cl)cc4)s3)n2)CC1 | 6.58
CC(C)/N=c1\cc2n(-c3ccc(Cl)cc3)c3ccccc3nc-2cc1Nc1ccc(Cl)cc1 [CLOFAZIMINE] | -0.68
c1cc(C2=NCCN2)cc(-c2cc(-c3ccc(C4=NCCN4)cc3)no2)c1 | 13.62
Cc1cc(C)nc(-n2nc(C)cc2Nc2ccccc2)n1 | 19.44
Nc1ncnc2[nH]nc(Cc3cccc4ccccc34)c12 | 6.9
CN1CCCC1CCO[C@](C)(c1ccccc1)c1ccc(Cl)cc1.O=C(O)/C=C/C(=O)O (some centres undefined) | 22.76
Cc1ccc(-c2cc(C(=O)Nc3cccnc3)c3cc(Br)ccc3n2)cc1 | 7.25
CCCn1c(CNc2ccccc2O)nc2ccccc21 | 12.04
Cc1cc(Nc2ccc(C(F)(F)F)cc2)n2ccnc2n1 | 0.53
COc1ccc(CN2CCOc3ccc(C(C)(O)CN(C)C)cc3C2)cc1C (centres undefined) | -1.07
O=C(NCCc1c[nH]c2ccccc12)c1cc2ccccc2oc1=O | 3.94

SMILES | Inhibition [%]
CC1CCCN(C(=O)C(C)Nc2cc(Cl)ccc2N2CCOCC2)C1 (centres undefined) | 9.92
COc1ccc(-c2cnc3cnc(-c4cccc(OC(C)C)c4)cn23)cc1 | 2.09
COc1nc2ccc(Br)cc2cc1[C@@H](c1ccccc1)[C@@](O)(CCN(C)C)c1cccc2ccccc12.O=C(O)C(F)(F)F | 9.78
O=C(OCc1ccccc1)N1CCC(c2cc(-c3ccncc3)c(-c3ccc(F)cc3)[nH]2)CC1 | 3.73
O=C(Nc1nc(-c2ccccn2)cs1)c1cncn1-c1ccccc1 | 11.12
CC(C)c1ncc(-c2ccncc2)c([C@H]2CC[C@H](CNC(=O)c3cccnc3)CC2)n1 | 12.7
O=C(Nc1ccccc1-c1nc2c(C(=O)O)cccc2o1)c1ccccc1 | 4.07
Cc1ccc(S(=O)(=O)n2cc(-c3ccnc(N)c3)c3cc(Br)cnc32)cc1 | 2.14
O=C(Nc1nnc(S)s1)c1cc(Br)ccc1Cl | 12.11
O=C(Nc1ccc(F)c(-c2nc3cc(-c4ccccc4)cnc3[nH]2)c1)N1CCCC1 | 9.18
OC[C@H]1O[C@@H](n2c3ccc(Cl)cc3c3c(-c4cc5ccccc5o4)ncnc32)C(O)[C@H]1O (some centres undefined) | 14.45
Cc1noc(C)c1COc1cccc(C(=O)N=c2[nH]cccc2C)c1 | 9.22
COc1cccc(OCC(=O)c2ccc(Br)cc2)c1 | -1.67
CCC(Sc1nc2ccccc2o1)C(=O)Nc1nccs1 (centres undefined) | 9.34
O=C(C(Cc1c[nH]c2ccccc12)NS(=O)(=O)c1ccc(Cl)cc1)N1CCCCC1 (centres undefined) | 6.8
N#CCN(CCCCN1CCN(c2ccc(F)cc2)CC1)C(=O)OCc1ccccc1 | 7.12
COc1ccc2nc(C)cc(OCC(=O)Nc3ccccc3OC)c2c1 | 13.7
COc1ccc(-c2cc(NC(=O)c3ccc(F)cc3Cl)ccc2OC)cc1 | 1.84
Cc1cc2ccccc2n1CC(=O)N1CC(C(=O)N2CCCCC2)Oc2ccccc21 (centres undefined) | 12.36
CC1CS(=O)(=O)CCN1/N=C/c1ccc([N+](=O)[O-])o1 (centres undefined) [NIFURTIMOX] | 12.66
N#Cc1ccc(-c2cnc(N)c(-c3ccc(C(N)=O)cc3)n2)cc1 | 12.16
O=C(NC1CCN(c2ccnc3ccccc23)C1)c1cccc(C(F)(F)F)c1 (centres undefined) | 17.29
Nc1ncnc2c1c(-c1cnc3ccccc3c1)nn2CC1CCNCC1 | 8.81
CC(C)C(C(=O)Nc1ccc(S(=O)(=O)N(C)C)cc1)c1ccc(Cl)cc1 (centres undefined) | 1.48

SMILES | Inhibition [%]
OCc1ccc(-c2cncc(Nc3cccc(Cl)c3)c2)cc1 | -6.21
CC(=O)Nc1ccc(NC(=O)c2cc(-c3cc(Cl)ccc3O)n[nH]2)cc1 | 9.68
c1ccc2c(c1)CN(CC1CC1)CC1(CCN(Cc3c[nH]c4cnccc34)CC1)O2 | 8.27
CCS(=O)(=O)N(Cc1ccco1)Cc1cc2ccc(C)cc2nc1O | 3.8
O=C(c1ccc(F)cc1)N(CCNc1ccccc1)c1ccccc1 | 3.31
CCCCOC(=O)Nc1cc2nc(C3CCCCC3)[nH]c2cc1N1CCCC1 | 17.07
Cc1cccc(Cn2ccc(NC(=O)c3ccc4c(c3)OCO4)n2)c1 | 8.05
COc1ccc(C(=N)N)cc1-c1cn(-c2ccc(C(=N)N)cc2)nn1.Cl.Cl | 9.03
Nc1cccnc1Nc1ccc(Cl)cc1 | 8.68
COc1ccc(Oc2ccc([C@@H](C)N(C)c3ncc4c(N)nc(N)nc4n3)cc2)cc1 | 12.77
CCOC(=O)c1noc(N)c1-c1ccccc1 | 4.78
c1ccc(Oc2ccc(-c3cc(N4CCOCC4)[nH]n3)cc2)cc1 | 6.26
CCOc1ccc2cc(-c3nn(CC4CCN(C)CC4)c4ncnc(N)c34)ccc2c1.Cl | 5.65
COc1ccccc1C(C)NCC(=O)Nc1cc(C(F)(F)F)ccc1Cl (centres undefined) | 6.23
Nc1ncc(-c2cn[nH]c2)cc1-c1nc2cc(Cl)cnc2[nH]1 | 13.92
O=C(NCc1nnc2n1CCCCC2)c1ccc(-c2ccc(F)cc2)o1 | 5.75
COc1ccc(Nc2ccccc2NC(=O)c2ccc(O)nc2)cc1 | 5.99
COc1cc(CN2CCC3(C=Cc4ccccc43)CC2)cc2c1OCO2 | 0.05
COc1cccc2c(C)nc(N=C(N)N)nc12.O=C(O)C(F)(F)F.O=C(O)C(F)(F)F | 8.57
CC(C)n1nc(-c2cc3c(Cl)cccc3[nH]2)c2c(N)ncnc21 | 2.83
O=C(CN1CCOCC1)Nc1ccc2ncnc(Nc3ccc(OCc4cccc(F)c4)c(Cl)c3)c2c1 | 8.91
CS(=O)(=O)N1CCC(CCn2nc(Cc3cccc4ccccc34)c3c(N)ncnc32)CC1 | 6.81
CC(C)(C)n1nc(-c2ccccc2)c2c(N)ncnc21 | 6.94
CNC(=O)C1Cc2ccccc2N1C(=O)Cc1ccc(F)cc1 (centres undefined) | 8.68

Part of the list above in order of count of non-hydrogen atoms, low to high.
SMILES | Inhibition [%]
CNC(=O)C1Cc2ccccc2N1C(=O)Cc1ccc(F)cc1 (centres undefined) | 8.68
CC1=NN(c2nc3ccccc3s2)C(=O)C1Cc1cccc2ccccc12 (centres undefined) | -6.52
O=C(NC1CCN(c2ccnc3ccccc23)C1)c1cccc(C(F)(F)F)c1 (centres undefined) | 17.29
COc1ccc(Oc2ccc([C@@H](C)N(C)c3ncc4c(N)nc(N)nc4n3)cc2)cc1 | 12.77

(list continues)

SMILES | Inhibition [%]
Nc1nccc2ccc(-c3ccc4nccn4c3)cc12 | 6.02
O=C(C1CCN(c2cc(-n3cccc3)ncn2)CC1)N1CCc2ccccc2C1 | 0.82
COc1cccn2c(C(=O)N3CCCCC3)c(C(F)(F)F)nc12 | 11.51
COc1ccc(-c2nn(C(C)C)c3ncnc(N)c23)cc1OC | 7.44
Cc1nn(C)cc1C(C)Nc1nncc(-c2ccc(C(F)(F)F)cc2)n1 (centres undefined) | -2.54
CC(C)(C)C(=O)N(CCCCCCN1C[C@H](O)[C@@H](O)[C@H](O)[C@H]1CO)C1CCCCCC1 | 12.26
COC(=O)C1=C(C)NC(C)=C(C(=O)OC(C)C)C1c1cccc2nonc12 (centres undefined) [ISRADIPINE] | 4.46
CC(=O)N(CCN(C(=O)c1ccc(F)cc1)c1ccccc1)c1ccccc1 | 8.94
CC(C)(C)OC(=O)N1CCN(c2cc(-c3ccc(Oc4ccccc4)cc3)n[nH]2)CC1 | 9.81
CC(C)(C)c1ccc(N[C@@H]2CCCC[C@H]2NC(=O)c2ccco2)cc1 | 1.71
CCOC(=O)c1c(NC(=O)c2c(F)c(F)c(F)c(F)c2F)sc(C(N)=O)c1C | 9.36
N#Cc1ccc(-c2ccc(OCC(N)=O)cc2)cc1 | 6.44
Cl.c1ccc(C[C@@H]2CN(c3nccc(Oc4ccc(-n5ccnc5)cc4)n3)CCN2)cc1 | 9.29
COc1ccc(C2CC(c3cccs3)=NN2C(=O)c2ccco2)cc1OC (centres undefined) | 11.65
Clc1ccc(CN2CCN(C3=NCCN3)CC2)cc1Cl | 14.57
NC(=O)c1cc(-c2ccsc2)ccc1OCCOc1ccccc1 | 13.51
Cc1ccc2cc(C3NC(=O)c4ccccc4N3)c(Cl)nc2c1 (centres undefined) | 8.31
CC(=O)O.CC(=O)O.Nc1ncnc2c1ncn2[C@@H]1O[C@H](COS(=O)(=O)NC(=O)c2ccccc2O)[C@@H](O)[C@H]1O | 10.79
CCOc1ccccc1NC(C)C(=O)Nc1cc(C(F)(F)F)ccc1N1CCOCC1 (centres undefined) | 10.91
CCOc1ccc(-c2nc(CNCCc3ccc(F)cc3)cs2)cc1 | -1.3
O=C(Nc1cccc(-c2ccc(NCCCN3CCCC3)nc2)c1)c1ccccc1 | -5.25
CCn1cnc2c(Nc3cc(F)cc(F)c3)nc(C#N)nc21 | 3.78
